Reference: PMC4577213
No constants are given. Whether binding was seen depends on the method and setting. In cells and extracts the contact can be indirect. Some entries that bind do so weakly or less than the wild type. Tags and fused reporters may be left off the sequences shown.

Chains of the proteins cited; added tags and fusions are not shown. Lines headed by an entry give the natural chain unless they say otherwise; changes in a name come on top.
UniProt P45975: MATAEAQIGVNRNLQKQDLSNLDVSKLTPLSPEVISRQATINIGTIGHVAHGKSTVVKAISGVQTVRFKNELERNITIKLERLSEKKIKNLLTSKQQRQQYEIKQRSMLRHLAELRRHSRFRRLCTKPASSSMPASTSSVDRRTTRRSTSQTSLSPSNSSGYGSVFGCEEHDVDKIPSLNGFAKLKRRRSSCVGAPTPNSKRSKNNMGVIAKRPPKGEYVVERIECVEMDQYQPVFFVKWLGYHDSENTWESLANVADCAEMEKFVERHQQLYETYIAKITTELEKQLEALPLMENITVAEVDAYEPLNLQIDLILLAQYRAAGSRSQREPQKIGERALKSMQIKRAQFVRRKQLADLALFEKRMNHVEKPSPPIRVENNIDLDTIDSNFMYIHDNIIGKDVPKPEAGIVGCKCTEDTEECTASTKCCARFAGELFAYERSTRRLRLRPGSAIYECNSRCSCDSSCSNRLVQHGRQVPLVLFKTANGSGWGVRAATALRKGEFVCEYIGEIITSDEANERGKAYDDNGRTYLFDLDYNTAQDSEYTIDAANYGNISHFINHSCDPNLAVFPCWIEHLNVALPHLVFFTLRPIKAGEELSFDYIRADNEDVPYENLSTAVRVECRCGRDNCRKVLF
UniProt P05205: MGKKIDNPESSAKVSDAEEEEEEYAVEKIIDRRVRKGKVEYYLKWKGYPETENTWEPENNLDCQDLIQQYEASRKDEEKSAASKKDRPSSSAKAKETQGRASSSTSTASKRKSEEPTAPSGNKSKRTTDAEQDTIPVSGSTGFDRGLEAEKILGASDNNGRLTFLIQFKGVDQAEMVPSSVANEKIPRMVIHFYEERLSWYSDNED
UniProt Q94517: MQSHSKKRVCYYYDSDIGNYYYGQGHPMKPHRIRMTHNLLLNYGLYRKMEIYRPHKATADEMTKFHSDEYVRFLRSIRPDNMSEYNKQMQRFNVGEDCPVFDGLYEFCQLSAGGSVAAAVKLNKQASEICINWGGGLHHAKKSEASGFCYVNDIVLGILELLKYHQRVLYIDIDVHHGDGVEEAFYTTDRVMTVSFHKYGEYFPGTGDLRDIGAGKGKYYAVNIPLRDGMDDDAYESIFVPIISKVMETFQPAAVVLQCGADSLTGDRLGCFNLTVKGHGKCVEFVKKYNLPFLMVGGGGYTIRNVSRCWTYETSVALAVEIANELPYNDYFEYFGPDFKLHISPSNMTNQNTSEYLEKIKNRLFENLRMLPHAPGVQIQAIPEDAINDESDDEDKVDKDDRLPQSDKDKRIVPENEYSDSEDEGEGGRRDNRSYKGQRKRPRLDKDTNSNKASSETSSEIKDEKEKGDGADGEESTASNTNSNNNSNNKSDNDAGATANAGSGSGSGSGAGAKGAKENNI

T1: V5-tagged RRP6 (D. melanogaster) (UniProt Q9VFF3)
T1 sequence: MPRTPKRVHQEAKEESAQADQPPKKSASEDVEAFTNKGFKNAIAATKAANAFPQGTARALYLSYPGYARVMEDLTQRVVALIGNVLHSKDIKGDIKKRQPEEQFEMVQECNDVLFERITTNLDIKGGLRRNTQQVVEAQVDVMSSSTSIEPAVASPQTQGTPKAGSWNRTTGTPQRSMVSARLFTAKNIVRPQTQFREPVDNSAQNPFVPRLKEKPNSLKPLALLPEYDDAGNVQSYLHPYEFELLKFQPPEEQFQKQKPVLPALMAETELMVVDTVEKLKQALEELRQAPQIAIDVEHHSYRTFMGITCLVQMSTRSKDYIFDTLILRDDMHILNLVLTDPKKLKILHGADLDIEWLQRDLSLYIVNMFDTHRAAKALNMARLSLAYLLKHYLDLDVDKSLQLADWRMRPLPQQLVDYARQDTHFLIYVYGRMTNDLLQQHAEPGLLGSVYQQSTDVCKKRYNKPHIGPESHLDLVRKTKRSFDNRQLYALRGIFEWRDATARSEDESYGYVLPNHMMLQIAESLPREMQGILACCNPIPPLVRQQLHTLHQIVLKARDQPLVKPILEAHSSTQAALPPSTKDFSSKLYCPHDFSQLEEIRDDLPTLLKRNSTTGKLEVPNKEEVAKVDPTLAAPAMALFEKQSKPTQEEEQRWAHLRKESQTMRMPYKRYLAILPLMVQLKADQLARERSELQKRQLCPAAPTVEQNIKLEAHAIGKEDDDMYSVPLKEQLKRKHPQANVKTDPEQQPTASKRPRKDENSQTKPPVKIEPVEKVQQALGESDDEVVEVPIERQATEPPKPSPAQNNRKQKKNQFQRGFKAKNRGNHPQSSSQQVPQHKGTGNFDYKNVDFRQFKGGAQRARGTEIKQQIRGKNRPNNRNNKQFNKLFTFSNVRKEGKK


Assays:
[1] = target: T1, V5-tagged RRP6 (D. melanogaster); assay: co-IP; nuclear extracts (sonicated in PBS) of S2-RRP6-V5 cells; IP with anti-V5, and reciprocal IP with antibodies against endogenous HP1a and RPD3; Western blotting
[2] = target: HA-tagged SU(VAR)3-9 (D. melanogaster) (UniProt P45975); assay: co-IP; nuclear extracts of S2 cells expressing both SU(VAR)3-9-HA and RRP6-V5; IP with anti-HA; Western blotting
[3] = target: HA-tagged SU(VAR)3-9 (D. melanogaster) (UniProt P45975); assay: proximity ligation; fixed S2 cells expressing SU(VAR)3-9-HA and RRP6-V5, antibodies against HA and V5, Duolink probes
[4] = target: Heterochromatin Protein 1a (D. melanogaster (endogenous in S2)) (UniProt P05205); assay: co-IP; nuclear extracts (sonicated in PBS) of S2-RRP6-V5 cells; IP with anti-V5, and reciprocal IP with antibodies against endogenous HP1a and RPD3; Western blotting
[5] = target: RPD3 (D. melanogaster (endogenous in S2)) (UniProt Q94517); assay: as above

Row | binding [1] | binding [2] | binding [3] | binding [4] | binding [5] | Molecule
1 | binds |  |  |  |  | RPD3 (from UniProt Q94517 1-521) (enzyme)
2 |  | binds | binds | binds | binds | V5-tagged RRP6 (enzyme, UniProt Q9VFF3 1-900) MPRTPKRVHQEAKEESAQADQPPKKSASEDVEAFTNKGFKNAIAATKAANAFPQGTARALYLSYPGYARVMEDLTQRVVALIGNVLHSKDIKGDIKKRQPEEQFEMVQECNDVLFERITTNLDIKGGLRRNTQQVVEAQVDVMSSSTSIEPAVASPQTQGTPKAGSWNRTTGTPQRSMVSARLFTAKNIVRPQTQFREPVDNSAQNPFVPRLKEKPNSLKPLALLPEYDDAGNVQSYLHPYEFELLKFQPPEEQFQKQKPVLPALMAETELMVVDTVEKLKQALEELRQAPQIAIDVEHHSYRTFMGITCLVQMSTRSKDYIFDTLILRDDMHILNLVLTDPKKLKILHGADLDIEWLQRDLSLYIVNMFDTHRAAKALNMARLSLAYLLKHYLDLDVDKSLQLADWRMRPLPQQLVDYARQDTHFLIYVYGRMTNDLLQQHAEPGLLGSVYQQSTDVCKKRYNKPHIGPESHLDLVRKTKRSFDNRQLYALRGIFEWRDATARSEDESYGYVLPNHMMLQIAESLPREMQGILACCNPIPPLVRQQLHTLHQIVLKARDQPLVKPILEAHSSTQAALPPSTKDFSSKLYCPHDFSQLEEIRDDLPTLLKRNSTTGKLEVPNKEEVAKVDPTLAAPAMALFEKQSKPTQEEEQRWAHLRKESQTMRMPYKRYLAILPLMVQLKADQLARERSELQKRQLCPAAPTVEQNIKLEAHAIGKEDDDMYSVPLKEQLKRKHPQANVKTDPEQQPTASKRPRKDENSQTKPPVKIEPVEKVQQALGESDDEVVEVPIERQATEPPKPSPAQNNRKQKKNQFQRGFKAKNRGNHPQSSSQQVPQHKGTGNFDYKNVDFRQFKGGAQRARGTEIKQQIRGKNRPNNRNNKQFNKLFTFSNVRKEGKK
